In patent US9981942B2, “Piperidine derivatives having multimodal activity against pain” (LABORATORIOS DEL DR. ESTEVE S.A., priority 2013, dated 2018):
At least one compound was matched to its structure with a doubt left.

These compounds were tested on σ1 receptor and the μ-opiod receptor (assay: μ and σ1 dual binding: combined class from the Ki of both radioligand assays). Details: combined class for Ki-μ and Ki-σ1; transfected HEK-293 membranes (σ1), transfected CHO-K1 cell membranes (μ).
Set-up: species or system human; key to μ and σ1 dual binding: +: Both Ki-μ and Ki-σ1>=500 nM; ++: One Ki<500 nM while the other Ki is >=500 nM; +++: Both Ki-μ and Ki-σ1<500 nM; ++++: Both Ki-μ and Ki-σ1<100 nM
Procedure: To investigate binding properties of σ1 receptor ligands to human σ1 receptor, transfected HEK-293 membranes and [^3H](+)-pentazocine (Perkin Elmer, NET-1056), as the radioligand, were used. The assay was carried out with 7 μg of membrane suspension, 5 nM of [^3H](+)-pentazocine in either absence or presence of either buffer or 10 μM Haloperidol for total and non-specific binding, respectively. Binding buffer contained Tris-HCl 50 mM at pH 8. Plates were incubated at 37° C. for 120 minutes. After the incubation period, the reaction mix was then transferred to MultiScreen HTS, FC plates (Millipore), filtered and plates were washed 3 times with ice-cold 10 mM Tris-HCL (pH7.4). Filters were dried and counted at approximately 40% efficiency in a MicroBeta scintillation counter (Perkin-Elmer) using EcoScint liquid scintillation cocktail
To investigate binding properties of mu-opioid receptor ligands to human μ-opioid receptor, transfected CHO-K1 cell membranes and [^3H]-DAMGO (Perkin Elmer, ES-542-C), as the radioligand, were used. The assay was carried out with 20 μg of membrane suspension, 1 nM of [^3H]-DAMGO in either absence or presence of either buffer or 10 μM Naloxone for total and non-specific binding, respectively. Binding buffer contained Tris-HCl 50 mM, MgCl2 5 mM at pH 7.4. Plates were incubated at 27° C. for 60 minutes. After the incubation period, the reaction mix was then transferred to MultiScreen HTS, FC plates (Millipore), filtered and plates were washed 3 times with ice-cold 10 mM Tris-HCL (pH 7.4). Filters were dried and counted at approximately 40% efficiency in a MicroBeta scintillation counter (Perkin-Elmer) using EcoScint liquid scintillation cocktail.
The following scale as been adopted for representing the binding to the σ1 receptor and the μ-opiod receptor expressed as Ki: • + Both Ki-μ and Ki-σ1>=500 nM • ++ One Ki<500 nM while the other Ki is >=500 nM • +++ Both Ki-μ and Ki-σ1<500 nM • ++++ Both Ki-μ and Ki-σ1<100 nM

| Compound | μ and σ1 dual binding |
| --- | --- |
| CC(C)n1cc(CN2CCC(c3cccc(NS(C)(=O)=O)c3)CC2)nn1 [Example 24, N-(3-(1-((1-isopropyl-1H-1,2,3-triazol-4-yl)methyl)piperidin-4-yl)phenyl)methanesulfonamide] | ++ |
| CNC(=O)c1cccc(C2CCN(Cc3cn(-c4ccccc4)nn3)CC2)c1 [Example 33, N-methyl-3-(1-((1-phenyl-1H-1,2,3-triazol-4-yl)methyl)piperidin-4-yl)benzamide] | ++ |
| OCCOc1ccc(-n2cc(CN3CCC(c4cccc(O)c4)CC3)nn2)cc1 [Example 109, 3-(1-((1-(4-(2-hydroxyethoxy)phenyl)-1H-1,2,3-triazol-4-yl)methyl)piperidin-4-yl)phenol] | ++ |
| CS(=O)(=O)Nc1cccc(C2CCN(Cc3cnn(Cc4ccccn4)c3)CC2)c1 [Example 168, N-(3-(1-((1-(pyridin-2-ylmethyl)-1H-pyrazol-4-yl)methyl)piperidin-4-yl)phenyl)methanesulfonamide] | ++ |

Same assay, conditions: transfected HEK-293 membranes (σ1), transfected CHO-K1 cell membranes (μ)

| Compound | Ki range for both μ and σ1 (dual-binding class) |
| --- | --- |
| COc1ccc(-n2cc(CN3CCC(c4cccc(O)c4)CC3)nn2)cn1 [Example 59, 3-(1-((1-(6-methoxypyridin-3-yl)-1H-1,2,3-triazol-4-yl)methyl)piperidin-4-yl)phenol] | < 100 nM |
| Nc1nc2ccc(C3CCN(Cc4cn(-c5ccccc5)nn4)CC3)cc2s1 [Example 73, 6-(1-((1-phenyl-1H-1,2,3-triazol-4-yl)methyl)piperidin-4-yl)benzo[d]thiazol-2-amine] | < 500 nM |
| CC(c1ccccc1)n1cc(CN2CCC(c3cccc(O)c3)CC2)nn1 (centres unmarked) [Example 77, 3-(1-((1-(1-phenylethyl)-1H-1,2,3-triazol-4-yl)methyl)piperidin-4-yl)phenol] | < 100 nM |
| CS(=O)(=O)Nc1cccc(C2CCN(Cc3cn(-c4ccccn4)nn3)CC2)c1 [Example 93, N-(3-(1-((1-(pyridin-2-yl)-1H-1,2,3-triazol-4-yl)methyl)piperidin-4-yl)phenyl)methanesulfonamide] | < 500 nM |
| OCCc1ccc(-n2cc(CN3CCC(c4cccc(O)c4)CC3)nn2)cc1 [Example 108, 3-(1-((1-(4-(2-hydroxyethyl)phenyl)-1H-1,2,3-triazol-4-yl)methyl)piperidin-4-yl)phenol] | < 500 nM |
| Oc1cccc(C2CCN(Cc3cn(-c4ccc(C(F)(F)F)cn4)nn3)CC2)c1 [Example 214, 3-(1-((1-(5-(trifluoromethyl)pyridin-2-yl)-1H-1,2,3-triazol-4-yl)methyl)piperidin-4-yl)phenol] | < 100 nM |
| COc1ccc(Cn2cc(CN3CCC(c4cccc(O)c4)CC3)nn2)nc1 [Example 227, 3-(1-((1-((5-methoxypyridin-2-yl)methyl)-1H-1,2,3-triazol-4-yl)methyl)piperidin-4-yl)phenol] | < 500 nM |
